Patent US20250376519A1
Changes are numbered by the printed parent chain. No constants are given. Whether binding was seen depends on the method and setting. Some results given as binding are weak or reduced against the parent protein; the word gives no strength.

Amino acid sequences for entries named in this document (tags omitted). A change or cut given only in a name is not applied to a line headed by its entry.
UniProt Q9NYJ7: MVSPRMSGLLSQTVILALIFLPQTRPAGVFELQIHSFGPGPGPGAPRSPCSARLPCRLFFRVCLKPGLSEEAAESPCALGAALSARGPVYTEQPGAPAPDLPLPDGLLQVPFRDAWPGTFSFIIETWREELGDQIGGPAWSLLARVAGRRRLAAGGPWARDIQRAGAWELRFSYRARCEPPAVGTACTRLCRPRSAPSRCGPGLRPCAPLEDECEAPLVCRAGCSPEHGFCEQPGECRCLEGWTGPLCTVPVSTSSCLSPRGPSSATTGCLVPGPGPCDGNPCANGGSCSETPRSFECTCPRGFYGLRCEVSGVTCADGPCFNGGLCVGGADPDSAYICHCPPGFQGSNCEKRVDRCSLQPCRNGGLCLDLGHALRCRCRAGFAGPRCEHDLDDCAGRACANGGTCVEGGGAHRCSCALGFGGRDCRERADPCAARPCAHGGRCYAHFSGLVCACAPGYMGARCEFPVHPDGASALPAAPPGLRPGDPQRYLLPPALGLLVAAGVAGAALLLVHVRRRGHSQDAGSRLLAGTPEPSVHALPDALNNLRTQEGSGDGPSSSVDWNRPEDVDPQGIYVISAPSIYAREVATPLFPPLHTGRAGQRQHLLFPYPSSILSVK

B1: hu98L1H1 (antibody, human IgG1, kappa, V domains shown)
VH: EVQLVESGGGLVQPGGSLRLSCAASGFTFSDYGIHWVRQAPGKGLEWVAYISSGGYTIYYADTVKGRFTISRDNAKNSLYLQMNSLRAEDTAVYYCARGDYDDIFYTMDYWGQGTTVTVSS
VL: DIQMTQSPSSLSASVGDRVTITCRASRDITKFLNWYQQKPGKAPKLLIYYTSRLHSGVPSRFSGSGSGTDFTLTISSLQPEDFATYYCQQGNTLPWTFGGGTKVEIKR
B2: hu98L2H1 (antibody, human IgG1, kappa, V domains shown)
VH: B1 VH
VL: B1 VL with P44V, F71Y
B3: hu98L2H2 (antibody, human IgG1, kappa, V domains shown)
VH: B1 VH with D102E
VL: B1 VL with P44V, F71Y
B4: hu98L3H1 (antibody, human IgG1, kappa, V domains shown)
VH: B1 VH
VL: B1 VL with K42G, P44V, F71Y
B5: hu98L3H2 (antibody, human IgG1, kappa, V domains shown)
VH: B1 VH with D102E
VL: B1 VL with K42G, P44V, F71Y
B6: hu98L3H4 (antibody, human IgG1, kappa, V domains shown)
VH: B1 VH with I58S, D102E
VL: B1 VL with K42G, P44V, F71Y
B7: hu98L3H5 (antibody, human IgG1, kappa, V domains shown)
VH: B1 VH with I34M, I58S, D102E
VL: B1 VL with K42G, P44V, F71Y

Biological target: human DLL3 on cells (human) (UniProt Q9NYJ7)
Experiment: flow cytometry

binding, binds:
B1
B2
B3
B4
B5
B6
B7
